## Assay results

The results are deposited in PubChem (AID1159506; NCATS, 2015).

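Genome-wide siRNA knockdown in TC32 Ewing sarcoma cells, comparing luciferase light from an NR0B1-promoter reporter with a CMV-promoter reporter 48 hours after transfection. Each siRNA was applied at 20 nM. A z-score of the log NR0B1-over-CMV signal, less the median of siRNAs with the same seed; more negative means a stronger specific loss of the NR0B1 reporter.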

This is part of the screen; most of the strongest results are not listed here. Sequences are the guide (antisense) strand, without overhang.

UGUUUGCACGGAUCAUCGC against FBXO46 read seed-corrected z-score -0.9711. Result for AUAGGUAUUUGGAGUCUGG against CFAP57 was seed-corrected z-score 0.2287. AUAAGUGUGAUCCCGAGGG against MFSD1 read seed-corrected z-score 0.2611. Result for UAUUGAUUUGGGUCCACGC against KARS was seed-corrected z-score -1.27. For CAUGUGUUUGGGCCUUUUC against LINC00202-1 the result was seed-corrected z-score -0.2226.

UCUCCUAGGAUUUUGGUGC against ZNF878 read seed-corrected z-score 0.4062. For UGCGUCACCAGGUACUGGU against B3GALT6 the result was seed-corrected z-score -0.2501. AAUCAUGUCACCACGGUCG against LRP3 gave seed-corrected z-score -1.42. UUACCAAUCCAAUGAAUGC against TAS2R7 read seed-corrected z-score 0.4112. Result for UGCACCUUCACUCAGUACC against LAMTOR4 was seed-corrected z-score 0.09745.

Result for AAAGUAAUGGGUGCUAGGG against ETFA was seed-corrected z-score 0.8069. UGCUUGAUAAAGGAGCUGG against RAD51 gave seed-corrected z-score -0.4474. UGGGUAACUUGAGAGGUCC against KIRREL3 read seed-corrected z-score 0.5004. UUCAUAGCCUUGAAGAGCC against ANXA6 read seed-corrected z-score -0.3472. With AUAGUUAUUGGGCCGAACC against FKBP15 the assay gave seed-corrected z-score 0.009546.

UUCUAACUCAUCAAGGUAC against GOPC gave seed-corrected z-score -0.1426. For UCCUUGCUCAACUUUCUCU against SCX the result was seed-corrected z-score -1.608. AAAGUCUCCACGGCGAAUG against TMEM43 gave seed-corrected z-score 0.5994. Result for UAUACAACUGCAUGGACCG against SEC61A1 was seed-corrected z-score 0.42. UAGUUGAGAAAUGGUAGUG against CCDC168 gave seed-corrected z-score -0.1067.

Result for UAUUGUCUCCUGGUAUGCC against RAG2 was seed-corrected z-score 0.6909. With UAGUGAGUAGAAGAAGGGC against DEGS2 the assay gave seed-corrected z-score 0.5921. With ACUUGUUACAUUUGUAGGG against LOC100287477 the assay gave seed-corrected z-score 0.7031. UCACAGUUGAGCUUGUGGG against DFFB read seed-corrected z-score 0.02445. AAAGAAAUCAGUCACAGGG against LOC402279 gave seed-corrected z-score -0.5938.

UAAGUUGCUUCCGGUGAUC against APCDD1L-AS1 read seed-corrected z-score -1.843. For UCUGCUAAAACAGCUUUGC against MIDN the result was seed-corrected z-score -0.6253. Result for UCACGUUAUUUUCUAAGCC against DGKB was seed-corrected z-score -0.2632. ACUGGAACUAGUUUAGAUG against EEF1B2P6 read seed-corrected z-score -1.415.

Repeated from the top, 3 entries:

| siRNA | target gene | seed-corrected z-score |
|---|---|---|
| `UGUUUGCACGGAUCAUCGC` | FBXO46 | -0.9711 |
| `AUAGGUAUUUGGAGUCUGG` | CFAP57 | 0.2287 |
| `AUAAGUGUGAUCCCGAGGG` | MFSD1 | 0.2611 |